# Laboratory results published in the supplement of paper PMC10338343.
# ± gives the standard deviation. The entries are a selection whose mix differs from that of the whole data set. Many entries were measured with a wide error.
# Tests used:
# [1] = tested on: MILI (PIWIL2) piRISC loaded with piRNA #1 (26 nt); assay: pre-steady-state target cleavage rate (min^-1); MIWI and MILI are mouse PIWI proteins and EfPiwi is from a freshwater sponge; tags in brackets are library labels; higher = faster piRNA-guided slicing of the target; details: guide: piRNA #1 5'p-UGAGGUAGUAGGUUGUAUAGUAUCCA; auxiliary factor: 500 nM mouse GTSF1
# Outline: (§1)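 In Cleave-'n-Seq, a transcribed, DNA-blocked target RNA library (0.1 nM) was combined with 1 nM active affinity-purified piRISC bearing one synthetic guide, with or without 500 nM GTSF1 partner protein. Reactions ran in HEPES–potassium acetate buffer at 33 °C for 0–8 or 0–960 min. Uncleaved targets were sequenced and normalised to depth and to weakly complementary targets, three trials were pooled, and k3 was capped at 0.0001 min^-1. The pre-steady-state cleavage rate was obtained by fitting a burst-and-steady-state model.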
# [2] = tested on: MIWI (PIWIL1) piRISC loaded with piRNA #1 (30 nt); assay: as above; details: guide: piRNA #1 5'p-UGAGGUAGUAGGUUGUAUAGUAUCCAGAGG; auxiliary factor: 500 nM mouse GTSF1
# Outline: as §1
Sequence,pre-steady-state target cleavage rate [1],pre-steady-state target cleavage rate [2]
GGAGACCAUACUAUACAACCCUACUACCUCA,0.00216 ± 0.0042,0.000744 ± 0.0065
GGAGACCUAUGAAUACAACCACUACCUCA,0.000606 ± 0.011,0.000635 ± 0.0073
GGAGACCUAUGAUAUGUAACUACUACCUCA,0.000119 ± 0.023,0.00016 ± 0.018
GGAGACCUAUGAUAACAACCUACUCCCUCA,0.00249 ± 0.0033,0.000344 ± 0.0073
GGAGACCUAUGAUAUCAACCUUCUACCUGA,0.000164 ± 0.016,0.000208 ± 0.011
GGAGACCUAUGAUAUCAACCUACUACCCA,0.000132 ± 0.02,0.000123 ± 0.017
GGAGACCUAACUAUACAACGUUCUACCUCA,0.00225 ± 0.0061,0.00255 ± 0.0046
GGAGACCUAUCUAUUCUACCUACUACCUCA,0.0569 ± 0.0086,0.00173 ± 0.0023
GGAGUGGAUACUAUACAACGCUACUACCUCA,0.0044 ± 0.0029,0.000565 ± 0.011
GGAGACCUAUGAUAUCAACCUACUACGAGA [g5:g15:cont:t1A],0.000311 ± 0.017,0.000346 ± 0.02
GGAGACCUAUGAUAUCAACGUACUACCACA,0.000773 ± 0.0094,0.000121 ± 0.025
GGAGACCUAUGAUAACAACCAACUAGCUCA,0.00183 ± 0.0044,0.00012 ± 0.019
GGAGACCUAUGUAUACAACCUUACUACCUCA,0.0023 ± 0.0024,0.000282 ± 0.0055
GGAGACCUAUGUAUACAACCUACUCCUCA,0.00139 ± 0.0039,0.000509 ± 0.0072
GGAGACCUAUGAUAUGUUGCAUCUACCUCA,0.0003 ± 0.016,0.000389 ± 0.011
GGAGACCUAUGAUAUCAACCUACUACAUCA,0.000846 ± 0.0067,0.00146 ± 0.0034
GGAGACCUAUGAUAACAACCUAGUUCCUCA,0.000566 ± 0.0094,0.000156 ± 0.0094
GGAGACCUAUGUAUAGAACCUAGUACCUCA,0.00162 ± 0.0038,0.00117 ± 0.0035
GGAGACCUAUGAUAUGUUGGCACUACCUCA,0.000286 ± 0.016,0.00067 ± 0.0072
GGAGACCUAUGAUAUCUACCUUCUACCUCA,0.000303 ± 0.0088,0.000216 ± 0.01
GGAGACCUAUGAUAUCAACCUUGUACCUCA,0.000889 ± 0.0073,0.000159 ± 0.017
GGAGACCUAUGAUAUGUUCCUACUACCCA,0.000113 ± 0.019,0.000132 ± 0.013
GGAGACCUAUGAAUACAACCUCUACCUCA,0.000537 ± 0.012,0.000543 ± 0.0067
GGAGACCUAUGUAUACAACCAACUACCACA,0.00188 ± 0.0039,0.000407 ± 0.0069
GGAGACCUAUGAUAUCGACCUACUACCUCA,0.000936 ± 0.0068,0.000172 ± 0.014
GGAGACCUAUGAUAUGUUGCUACUACCUUCA,0.000662 ± 0.0086,0.00162 ± 0.0035
GGAGUGGAUACUAUACAAUCCUACUACCUCA,0.00125 ± 0.005,0.000299 ± 0.021

# Nothing new here: an excerpt of the list.
Sequence,pre-steady-state target cleavage rate [1],pre-steady-state target cleavage rate [2]
GGAGACCUAUGUAUACAACCUACUCCUCA,0.00139 ± 0.0039,0.000509 ± 0.0072
GGAGACCUAUGAUAUGUUGCAUCUACCUCA,0.0003 ± 0.016,0.000389 ± 0.011
